Laboratory results published in paper doi:10.1101/2025.09.10.675342.
Positions count from the first letter of the chain named. Results are given in words; binding and its absence hold for the method and conditions named. Binding seen in cells or lysates may run through a third protein. Some binding calls cover weakened binding; strength is not graded here. Sequences can lack the tags named with a protein.

The chains behind the UniProt entries cited, without tags or fusion partners. Residues count along the entry.
UniProt P11835, residues 24-771: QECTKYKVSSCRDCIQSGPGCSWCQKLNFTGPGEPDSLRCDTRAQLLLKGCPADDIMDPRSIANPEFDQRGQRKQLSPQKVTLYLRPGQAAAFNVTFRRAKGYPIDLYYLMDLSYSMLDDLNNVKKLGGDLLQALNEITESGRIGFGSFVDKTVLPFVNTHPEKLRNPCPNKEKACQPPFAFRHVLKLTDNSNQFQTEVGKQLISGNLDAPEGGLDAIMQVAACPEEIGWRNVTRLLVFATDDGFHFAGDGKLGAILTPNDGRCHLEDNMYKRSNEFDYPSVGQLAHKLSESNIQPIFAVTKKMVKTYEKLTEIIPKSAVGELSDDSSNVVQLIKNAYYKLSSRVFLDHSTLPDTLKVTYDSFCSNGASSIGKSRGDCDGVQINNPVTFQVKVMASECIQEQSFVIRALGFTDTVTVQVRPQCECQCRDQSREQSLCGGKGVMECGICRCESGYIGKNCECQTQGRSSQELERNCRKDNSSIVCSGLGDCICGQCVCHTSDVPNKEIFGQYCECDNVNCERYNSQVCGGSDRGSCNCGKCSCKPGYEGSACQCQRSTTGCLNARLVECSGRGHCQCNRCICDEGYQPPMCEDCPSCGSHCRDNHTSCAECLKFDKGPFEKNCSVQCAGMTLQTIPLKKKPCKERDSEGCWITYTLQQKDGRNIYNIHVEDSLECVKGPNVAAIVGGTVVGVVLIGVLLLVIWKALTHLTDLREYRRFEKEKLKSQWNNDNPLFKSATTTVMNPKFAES

Key:
Assay in all cases: FRET or BRET
[1] = target: T1, CLIP-tagged mouse SIRPα Y86H (mouse) (UniProt P97797)
T1 sequence (chain, CLIP-Surface 547 on the CLIP tag): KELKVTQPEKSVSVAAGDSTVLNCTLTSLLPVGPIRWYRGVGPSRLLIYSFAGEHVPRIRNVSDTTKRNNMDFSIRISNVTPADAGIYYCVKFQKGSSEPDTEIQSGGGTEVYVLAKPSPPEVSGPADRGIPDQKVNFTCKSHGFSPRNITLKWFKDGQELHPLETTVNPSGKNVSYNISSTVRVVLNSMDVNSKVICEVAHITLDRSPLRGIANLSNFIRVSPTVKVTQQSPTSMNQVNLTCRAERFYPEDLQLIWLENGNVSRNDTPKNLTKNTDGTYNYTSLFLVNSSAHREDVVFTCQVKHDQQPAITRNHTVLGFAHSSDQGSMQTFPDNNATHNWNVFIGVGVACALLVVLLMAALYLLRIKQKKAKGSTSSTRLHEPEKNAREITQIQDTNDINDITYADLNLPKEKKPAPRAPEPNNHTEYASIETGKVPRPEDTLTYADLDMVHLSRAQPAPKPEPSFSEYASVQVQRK

[2] = target: T2, CLIP-tagged mouse SIRPα A116S, I118T (mouse) (UniProt P97797)
T2 sequence (chain, CLIP-Surface 547 on the CLIP tag): T1 sequence (chain, CLIP-Surface 547 on the CLIP tag) with H55Y, A85S, I87T

[3] = target: T3, CLIP-tagged mouse SIRPα T96V (mouse) (UniProt P97797)
T3 sequence (chain, CLIP-Surface 547 on the CLIP tag): T1 sequence (chain, CLIP-Surface 547 on the CLIP tag) with H55Y, T65V

[4] = target: T4, CLIP-tagged mouse SIRPα A83T (mouse) (UniProt P97797)
T4 sequence (chain, CLIP-Surface 547 on the CLIP tag): T1 sequence (chain, CLIP-Surface 547 on the CLIP tag) with A52T, H55Y

Measured: binding

SNAP-tagged mouse CD18 (acceptor-labeled CD18) (from UniProt P11835 24-771) (receptor)
binds: [1] | [2] | [3] | [4]
